From paper PMC7156710
pKd: −log10 of the molar value. For some of these results: A weaker result is weaker than the reference pair of the same experiment. For some of these results: The exact form of at least one protein or probe is not confirmed. For some of these results: At least one verdict was read from the data and is not stated in words by the source.

Sequences of proteins named here, by UniProt entry; tags and fusion partners are left off. A line that says so, or that is headed by a name, gives the form on record, which may keep a tag or linker. Residues count along the entry.
UniProt P48431, 40-123: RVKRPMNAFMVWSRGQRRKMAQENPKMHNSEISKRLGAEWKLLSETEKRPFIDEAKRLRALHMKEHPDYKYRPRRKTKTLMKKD
UniProt P48431, 40-123 F48A: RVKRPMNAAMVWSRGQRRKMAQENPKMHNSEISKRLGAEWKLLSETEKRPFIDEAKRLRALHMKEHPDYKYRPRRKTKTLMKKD
UniProt P48431, 40-123 W79A: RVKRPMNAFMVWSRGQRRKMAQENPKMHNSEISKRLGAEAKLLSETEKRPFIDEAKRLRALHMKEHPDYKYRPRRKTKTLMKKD
UniProt P48431, 40-123 R56A: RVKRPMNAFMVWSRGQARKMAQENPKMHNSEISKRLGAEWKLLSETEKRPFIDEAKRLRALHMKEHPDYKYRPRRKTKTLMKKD
UniProt P48431, 40-123 R98A: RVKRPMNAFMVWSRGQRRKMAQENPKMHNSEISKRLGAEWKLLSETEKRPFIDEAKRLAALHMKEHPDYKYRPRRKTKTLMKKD
UniProt P48431, 40-123 K80A: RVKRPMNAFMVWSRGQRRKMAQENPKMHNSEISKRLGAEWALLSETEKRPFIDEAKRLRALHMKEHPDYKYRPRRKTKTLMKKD
UniProt P48431, 40-123 R113A: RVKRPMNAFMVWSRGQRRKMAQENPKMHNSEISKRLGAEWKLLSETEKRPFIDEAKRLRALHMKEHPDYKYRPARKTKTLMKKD
UniProt P48431, 40-123 W51A: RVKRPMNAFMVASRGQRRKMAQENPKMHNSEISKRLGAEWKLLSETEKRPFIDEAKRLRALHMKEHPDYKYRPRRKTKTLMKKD
UniProt P48431, 40-123 N46A: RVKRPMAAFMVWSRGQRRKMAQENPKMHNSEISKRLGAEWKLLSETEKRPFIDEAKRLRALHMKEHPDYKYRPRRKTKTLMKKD
UniProt P48431, 40-123 K95A: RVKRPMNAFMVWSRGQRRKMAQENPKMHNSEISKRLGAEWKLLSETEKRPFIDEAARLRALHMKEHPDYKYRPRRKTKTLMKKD
UniProt P48431, other isoform, or with tags, fused parts or gaps: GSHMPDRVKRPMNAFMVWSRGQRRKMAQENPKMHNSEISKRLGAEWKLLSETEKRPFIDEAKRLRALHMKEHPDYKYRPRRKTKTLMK

Key:
[1] = target: Sox2-HMG (Homo sapiens) (UniProt P48431); assay: fluorescence anisotropy; conditions: 10 mM Tris-HEPES pH 7.5, 135 mM KCl, 15 mM NaCl, 1 mM DTT, 8% Ficoll, 0.05% NP-40, 0.1 mg/mL BSA; 2 nM DNA or 3 nM RNA; room temperature (stated for competition); recombinant protein; residues 40-123; protein details: N-terminal His6, thrombin cleaved; label: 3' fluorescein
[2] = target: Sox2-HMG (from His8-MBP fusion) (Homo sapiens) (UniProt P48431); assay: fluorescence anisotropy; conditions: 10 mM Tris-HEPES pH 7.5, 135 mM KCl, 15 mM NaCl, 1 mM DTT, 8% Ficoll, 0.05% NP-40, 0.1 mg/mL BSA; 2 nM DNA or 3 nM RNA; room temperature (stated for competition); recombinant protein; residues 40-123; protein details: His8-MBP removed with HRV-3C; label: 3'-FAM
[3] = target: Sox2-HMG (Homo sapiens) (UniProt P48431); assay: NMR HSQC; conditions: 10 mM Tris-HEPES pH 7.5, 135 mM KCl, 15 mM NaCl, 1 mM DTT, 8% Ficoll, 0.05% NP-40, 0.1 mg/mL BSA; 2 nM DNA or 3 nM RNA; room temperature (stated for competition); recombinant protein; residues 40-123; protein details: N-terminal His6, thrombin cleaved; label: 3' fluorescein
[4] = target: Sox2-HMG F48A (Homo sapiens) (UniProt P48431); assay: fluorescence anisotropy; conditions: 10 mM Tris-HEPES pH 7.5, 135 mM KCl, 15 mM NaCl, 1 mM DTT, 8% Ficoll, 0.05% NP-40, 0.1 mg/mL BSA; 2 nM DNA or 3 nM RNA; room temperature (stated for competition); recombinant protein; residues 40-123; protein details: His6; label: 3' fluorescein
[5] = target: Sox2-HMG W79A (Homo sapiens) (UniProt P48431); assay: fluorescence anisotropy; conditions: 10 mM Tris-HEPES pH 7.5, 135 mM KCl, 15 mM NaCl, 1 mM DTT, 8% Ficoll, 0.05% NP-40, 0.1 mg/mL BSA; 2 nM DNA or 3 nM RNA; room temperature (stated for competition); recombinant protein; residues 40-123; protein details: His6; label: 3' fluorescein
[6] = target: Sox2-HMG R56A (Homo sapiens) (UniProt P48431); assay: fluorescence anisotropy; conditions: 10 mM Tris-HEPES pH 7.5, 135 mM KCl, 15 mM NaCl, 1 mM DTT, 8% Ficoll, 0.05% NP-40, 0.1 mg/mL BSA; 2 nM DNA or 3 nM RNA; room temperature (stated for competition); recombinant protein; residues 40-123; protein details: His6; label: 3' fluorescein
[7] = target: Sox2-HMG R98A (Homo sapiens) (UniProt P48431); assay: fluorescence anisotropy; conditions: 10 mM Tris-HEPES pH 7.5, 135 mM KCl, 15 mM NaCl, 1 mM DTT, 8% Ficoll, 0.05% NP-40, 0.1 mg/mL BSA; 2 nM DNA or 3 nM RNA; room temperature (stated for competition); recombinant protein; residues 40-123; protein details: His6; label: 3' fluorescein
[8] = target: Sox2-HMG K80A (Homo sapiens) (UniProt P48431); assay: fluorescence anisotropy; conditions: 10 mM Tris-HEPES pH 7.5, 135 mM KCl, 15 mM NaCl, 1 mM DTT, 8% Ficoll, 0.05% NP-40, 0.1 mg/mL BSA; 2 nM DNA or 3 nM RNA; room temperature (stated for competition); recombinant protein; residues 40-123; protein details: His6; label: 3' fluorescein
[9] = target: Sox2-HMG R113A (Homo sapiens) (UniProt P48431); assay: fluorescence anisotropy; conditions: 10 mM Tris-HEPES pH 7.5, 135 mM KCl, 15 mM NaCl, 1 mM DTT, 8% Ficoll, 0.05% NP-40, 0.1 mg/mL BSA; 2 nM DNA or 3 nM RNA; room temperature (stated for competition); recombinant protein; residues 40-123; protein details: His6; label: 3' fluorescein
[10] = target: Sox2-HMG W51A (Homo sapiens) (UniProt P48431); assay: fluorescence anisotropy; conditions: 10 mM Tris-HEPES pH 7.5, 135 mM KCl, 15 mM NaCl, 1 mM DTT, 8% Ficoll, 0.05% NP-40, 0.1 mg/mL BSA; 2 nM DNA or 3 nM RNA; room temperature (stated for competition); recombinant protein; residues 40-123; protein details: His6; label: 3' fluorescein
[11] = target: Sox2-HMG N46A (Homo sapiens) (UniProt P48431); assay: fluorescence anisotropy; conditions: 10 mM Tris-HEPES pH 7.5, 135 mM KCl, 15 mM NaCl, 1 mM DTT, 8% Ficoll, 0.05% NP-40, 0.1 mg/mL BSA; 2 nM DNA or 3 nM RNA; room temperature (stated for competition); recombinant protein; residues 40-123; protein details: His6; label: 3' fluorescein
[12] = target: Sox2-HMG K95A (Homo sapiens) (UniProt P48431); assay: fluorescence anisotropy; conditions: 10 mM Tris-HEPES pH 7.5, 135 mM KCl, 15 mM NaCl, 1 mM DTT, 8% Ficoll, 0.05% NP-40, 0.1 mg/mL BSA; 2 nM DNA or 3 nM RNA; room temperature (stated for competition); recombinant protein; residues 40-123; protein details: His6; label: 3' fluorescein
[13] = target: Sox2-HMG (thrombin cleaved) (Homo sapiens) (UniProt P48431); assay: fluorescence anisotropy; conditions: 10 mM Tris-HEPES pH 7.5, 8% Ficoll, 0.05% NP-40, 135 mM KCl, 15 mM NaCl, 1 mM DTT, 0.1 mg/mL BSA; 2 nM DNA or 3 nM RNA; recombinant protein; residues 38-121; label: FAM on one strand

“GGUAUCAUGCGGAAACGCACCUCUACC [Loop B, P1/2(3bp)]” showed a pKd [1] of 7.96.
Sequence GGUCCAUGCGAAAGUAUGGACC [9 bp hairpin] has a pKd [2] of 7.27.
“GGUCCAUGCGGGCGAAAGUCUGUAUGGACC [13 bp hairpin]” gave a pKd [2] of 7.08.
GGUCCGAAAGGACC [5 bp hairpin] gave a pKd [2] of 7.15.
For “GGUCGCCGUGGCCACUUCGAAAGGGGUGGAAAGGGCGACC [Loop A]”, the pKd [1] was 7.96.
“GGUCUUAAGGUGCGGGCGAAAGUCUGUACCUCUGGGACC [Loop B, Bulge(0+1)]”: binds [3]; binds more weakly [4]; binds more weakly [5]. For the same sequence, the binding result [6] was “binds more weakly”, the binding result [7] was “binds more weakly” and the pKd [1] was 8.00. “GGUCUUAAGGUGCGGGCGAAAGUCUGUACCUCUGGGACC [Loop B, Bulge(0+1)]”: binds more weakly [8]; binds more weakly [9]; binds more weakly [10]. “GGUCUUAAGGUGCGGGCGAAAGUCUGUACCUCUGGGACC [Loop B, Bulge(0+1)]”: binds more weakly [11]; binds more weakly [12].
Sequence “GGUCUUAUCAUGCGAAAGUACCUCUGGGACC [Loop B, P2(3bp)]” has a pKd [1] of 7.92.
“GGUCUUAUCAUGCGCGAAAGUGUACCUCUGGGACC [Loop B, P2(5bp)]” showed a pKd [1] of 8.00.
In the case of “GGUCUUAUCAUGCGGGC / GCCCGCAUGAUAAGACC [Loop B fully paired RNA duplex]”, the pKd [13] was 7.27.
“GGUCUUAUCAUGCGGGCGAAAGUCUGUACCUCUGGGACC [Loop B]” was tested, and the pKd [1] was 8.00.
“GGUCUUAUCGUGCGGGCGAAAGUCUGUACCUCUGGGACC [Loop B, Bulge(2+3)]” was tested, and the pKd [1] was 7.85.
In the case of “GGUCUUAUGGUGCGGGCGAAAGUCUGUACCUCUGGGACC [Loop B, Bulge(1+2)]”, the pKd [1] was 7.92.
“GGUGAUGUUCGCCGUGGCCACUUAUCAUGCGGGCUCCUUUGGGAGGGUGCUCUUCUUUGUCUGUACCUCUGGGUGGAAAGGGCGAAUUC [ES2 267-354]” showed a pKd [1] of 8.00.
Work on “GGUGGGCUCCUUUGGGAGGGUGCUCUUCUUUGUCUACC [Loop C]” yielded a pKd [1] of 7.96.
Work on “GGUGUUAAAAGCAUAGUGGGAAAGUGACGUGUAAUUCGUCCACAUUACUUGAUGCGGUUAUAGUCCCAAUGCCACCUAACACAAAGUACGAGCAAGGAGACUC [env4 Cbl riboswitch]” yielded a pKd [1] of 7.49.
